Data source: PubChem BioAssay AID1259254 (NCATS, 2017)
In all, the deposit lists about 59,000 reagents; below is an unselected part. About 1,550 of them (2.6%) were called active. 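G2 share is only a proxy for re-replication; each gene was hit by three separate siRNAs, and active genes were retested.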 The numbers tell different reagents against one gene apart. Not all columns of the deposit are shown. No sequences are given here. The record does not give: the amount of reagent.

Assay: 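Genome-wide screen for genes that prevent DNA re-replication in cancer cells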 (primary screen)
System: human HCT116 colorectal cancer cells
Reagents: single siRNA against human genes
Duration: 3 days
Measurement: 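Nuclei stained with Hoechst and imaged; cell-cycle phase assigned by DNA content; G2 share scaled per plate, non-targeting siRNA 0%, GMNN siRNA 100%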
Scale: G2 robust z-score: higher = more G2 cells, more excess DNA replication
Call rule: 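An siRNA counts as active if its G2 robust z-score lies at least 5 MADs above the screen median; here such calls match roughly 38% of GMNN control or more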

The first 10 records, to show the layout:
target,siRNA no.,G2 robust z-score,activity call
MAJIN (membrane anchored junction protein),1,-0.663,inactive
MAJIN (membrane anchored junction protein),2,-0.0102,inactive
MAJIN (membrane anchored junction protein),3,-1.24,inactive
NOX3 (NADPH oxidase 3),1,1.72,inactive
NOX3 (NADPH oxidase 3),2,-1.08,inactive
NOX3 (NADPH oxidase 3),3,2.19,inactive
MAGI2,1,4.69,inactive
MAGI2,2,-1.24,inactive
MAGI2,3,0.76,inactive
DPYSL2 (dihydropyrimidinase like 2),1,0.523,inactive

Main list, from the first entry:
target,siRNA no.,G2 robust z-score,activity call
MAJIN (membrane anchored junction protein),1,-0.663,inactive
MAJIN (membrane anchored junction protein),2,-0.0102,inactive
MAJIN (membrane anchored junction protein),3,-1.24,inactive
NOX3 (NADPH oxidase 3),1,1.72,inactive
NOX3 (NADPH oxidase 3),2,-1.08,inactive
NOX3 (NADPH oxidase 3),3,2.19,inactive
MAGI2,1,4.69,inactive
MAGI2,2,-1.24,inactive
MAGI2,3,0.76,inactive
DPYSL2 (dihydropyrimidinase like 2),1,0.523,inactive
DPYSL2 (dihydropyrimidinase like 2),2,-0.0813,inactive
DPYSL2 (dihydropyrimidinase like 2),3,-0.00344,inactive
HEMK2,1,4.11,inactive
HEMK2,2,6.92,active
HEMK2,3,-0.194,inactive
LBH (LBH regulator of Wnt signaling pathway),1,0.316,inactive
LBH (LBH regulator of Wnt signaling pathway),2,0.577,inactive
LBH (LBH regulator of Wnt signaling pathway),3,-0.0344,inactive
FKBP10 (FKBP prolyl isomerase 10),1,0.242,inactive
FKBP10 (FKBP prolyl isomerase 10),2,-0.679,inactive
FKBP10 (FKBP prolyl isomerase 10),3,-0.62,inactive
ZBTB1 (zinc finger and BTB domain containing 1),1,-0.0331,inactive
ZBTB1 (zinc finger and BTB domain containing 1),2,-0.546,inactive
ZBTB1 (zinc finger and BTB domain containing 1),3,-0.371,inactive
WDR4,1,-0.965,inactive
WDR4,2,-0.131,inactive
WDR4,3,0.175,inactive
RABGAP1 (RAB GTPase activating protein 1),1,2.57,inactive
RABGAP1 (RAB GTPase activating protein 1),2,1.86,inactive
RABGAP1 (RAB GTPase activating protein 1),3,1.85,inactive
"RAB21 (RAB21, member RAS oncogene family)",1,4.53,inactive
"RAB21 (RAB21, member RAS oncogene family)",2,-0.599,inactive
"RAB21 (RAB21, member RAS oncogene family)",3,-0.532,inactive
CHD1L (chromodomain helicase DNA binding protein 1 like),1,-0.721,inactive
CHD1L (chromodomain helicase DNA binding protein 1 like),2,-0.572,inactive
CHD1L (chromodomain helicase DNA binding protein 1 like),3,2.49,inactive
COL6A1 (collagen type VI alpha 1 chain),1,-0.625,inactive
COL6A1 (collagen type VI alpha 1 chain),2,1.04,inactive
COL6A1 (collagen type VI alpha 1 chain),3,-0.325,inactive
LYPLA1 (lysophospholipase 1),1,-0.497,inactive
LYPLA1 (lysophospholipase 1),2,2.58,inactive
LYPLA1 (lysophospholipase 1),3,-0.812,inactive
SLC35E3,1,-0.637,inactive
SLC35E3,2,-0.932,inactive
SLC35E3,3,0.409,inactive
GPR61 (G protein-coupled receptor 61),1,-1.39,inactive
GPR61 (G protein-coupled receptor 61),2,-0.514,inactive
GPR61 (G protein-coupled receptor 61),3,-0.645,inactive
APOOL (apolipoprotein O like),1,0.429,inactive
APOOL (apolipoprotein O like),2,0.362,inactive
APOOL (apolipoprotein O like),3,0.901,inactive
SLC35B1,1,11.2,active
SLC35B1,2,0.496,inactive
SLC35B1,3,0.802,inactive
EIF2D (eukaryotic translation initiation factor 2D),1,1.39,inactive
EIF2D (eukaryotic translation initiation factor 2D),2,-1.2,inactive
EIF2D (eukaryotic translation initiation factor 2D),3,-0.138,inactive
FAM91A1 (family with sequence similarity 91 member A1),1,0.941,inactive
FAM91A1 (family with sequence similarity 91 member A1),2,1.72,inactive
FAM91A1 (family with sequence similarity 91 member A1),3,0.862,inactive
ASB5 (ankyrin repeat and SOCS box containing 5),1,0.883,inactive
ASB5 (ankyrin repeat and SOCS box containing 5),2,1.05,inactive
ASB5 (ankyrin repeat and SOCS box containing 5),3,0.625,inactive
TMED3 (transmembrane p24 trafficking protein 3),1,6.08,active
TMED3 (transmembrane p24 trafficking protein 3),2,-0.67,inactive
TMED3 (transmembrane p24 trafficking protein 3),3,-0.115,inactive
IGF2R (insulin like growth factor 2 receptor),1,1.69,inactive
IGF2R (insulin like growth factor 2 receptor),2,-0.3,inactive
IGF2R (insulin like growth factor 2 receptor),3,-1.09,inactive
ENSA (endosulfine alpha),1,4.02,inactive
ENSA (endosulfine alpha),2,0.102,inactive
ENSA (endosulfine alpha),3,0.471,inactive
RTN1 (reticulon 1),1,0.694,inactive
RTN1 (reticulon 1),2,0.029,inactive
RTN1 (reticulon 1),3,-0.264,inactive
B9D2 (B9 domain containing 2),1,2.48,inactive
B9D2 (B9 domain containing 2),2,-0.557,inactive
B9D2 (B9 domain containing 2),3,2.11,inactive
ATP4A (ATPase H+/K+ transporting subunit alpha),1,10.2,active
ATP4A (ATPase H+/K+ transporting subunit alpha),2,1.21,inactive
ATP4A (ATPase H+/K+ transporting subunit alpha),3,-0.799,inactive
POGK (pogo transposable element derived with KRAB domain),1,0.323,inactive
POGK (pogo transposable element derived with KRAB domain),2,2.33,inactive
POGK (pogo transposable element derived with KRAB domain),3,-0.413,inactive
RPL13P12 (ribosomal protein L13 pseudogene 12),1,-0.236,inactive
RPL13P12 (ribosomal protein L13 pseudogene 12),2,1.88,inactive
RPL13P12 (ribosomal protein L13 pseudogene 12),3,1.24,inactive
